Test results: article PMC10289295

Assays:
[1] = target: Flag-Tet1; assay: co-IP; lysates of HEK293 cells transfected with vector or Flag-Tet for 48 h; anti-Flag magnetic beads, 6-12 h at 4°C; western blot
[2] = target: Flag-Tet2; assay: as above

binding [1]: binds | binding [2]: binds
B1: Non-POU domain-containing octamer-binding (NONO) protein, in HEK293 cells (protein, UniProt Q15233 1-471)
chain: MQSNKTFNLEKQNHTPRKHHQHHHQQQHHQQQQQQPPPPPIPANGQQASSQNEGLTIDLKNFRKPGEKTFTQRSRLFVGNLPPDITEEEMRKLFEKYGKAGEVFIHKDKGFGFIRLETRTLAEIAKVELDNMPLRGKQLRVRFACHSASLTVRNLPQYVSNELLEEAFSVFGQVERAVVIVDDRGRPSGKGIVEFSGKPAARKALDRCSEGSFLLTTFPRPVTVEPMDQLDDEEGLPEKLVIKNQQFHKEREQPPRFAQPGSFEYEYAMRWKALIEMEKQQQDQVDRNIKEAREKLEMEMEAARHEHQVMLMRQDLMRRQEELRRMEELHNQEVQKRKQLELRQEEERRRREEEMRRQQEEMMRRQQEGFKGTFPDAREQEIRMGQMAMGGAMGINNRGAMPPAPVPAGTPAPPGPATMMPDGTLGLTPPTTERFGQAATMEGIGAIGGTPPAFNRAAPGAEFAPNKRRRY

No constants are given. Whether binding was seen depends on the method and setting. In cells and extracts the contact can be indirect. A result given as binding can be weak or reduced; the word gives no strength.
